Data taken from patent publication US9738664B2, “Boronic acid inhibitors of HIV protease” (WISCONSIN ALUMNI RESEARCH FOUNDATION, priority 2014, dated 2017).
Some results were stated once for a whole list of compounds, not compound by compound.

Target: T1, HIV-1 protease (Human immunodeficiency virus type 1 group M subtype B, UniProt P03367, C567A/C595A/L533I/L563I/Q507K)
T1 construct: Double-stranded, linear DNA encoding HIV-1 protease; 8xHis (self-cleavable) (N, cleaved yes); made in house
Format: biochemical
Settings: FIG. 2; relative to amprenavir or darunavir

Row | Compound | enhancement in inhibition of HIV-1 protease compared to non-boronated cognate compound [fold]
1 | CC(C)CN(C[C@@H](O)[C@H](Cc1ccccc1)NC(=O)O[C@H]1CCOC1)S(=O)(=O)c1ccc(B(O)O)cc1 [B-Amprenavir (6)] | > 10
2 | CC(C)CN(C[C@@H](O)[C@H](Cc1ccccc1)NC(=O)O[C@H]1CO[C@H]2OCC[C@H]21)S(=O)(=O)c1ccc(B(O)O)cc1 [B-Darunavir (9)] | > 10
